Measured values published in article PMC6952796.
These are yes or no findings as the source states them, for the method shown. Some binding calls cover weakened binding; strength is not graded here.

The chains behind the UniProt entries cited, without tags or fusion partners.
UniProt P00441: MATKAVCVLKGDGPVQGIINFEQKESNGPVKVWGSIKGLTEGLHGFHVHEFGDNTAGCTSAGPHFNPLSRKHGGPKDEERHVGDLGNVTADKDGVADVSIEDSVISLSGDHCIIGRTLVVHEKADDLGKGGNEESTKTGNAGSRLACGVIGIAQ
UniProt P07237: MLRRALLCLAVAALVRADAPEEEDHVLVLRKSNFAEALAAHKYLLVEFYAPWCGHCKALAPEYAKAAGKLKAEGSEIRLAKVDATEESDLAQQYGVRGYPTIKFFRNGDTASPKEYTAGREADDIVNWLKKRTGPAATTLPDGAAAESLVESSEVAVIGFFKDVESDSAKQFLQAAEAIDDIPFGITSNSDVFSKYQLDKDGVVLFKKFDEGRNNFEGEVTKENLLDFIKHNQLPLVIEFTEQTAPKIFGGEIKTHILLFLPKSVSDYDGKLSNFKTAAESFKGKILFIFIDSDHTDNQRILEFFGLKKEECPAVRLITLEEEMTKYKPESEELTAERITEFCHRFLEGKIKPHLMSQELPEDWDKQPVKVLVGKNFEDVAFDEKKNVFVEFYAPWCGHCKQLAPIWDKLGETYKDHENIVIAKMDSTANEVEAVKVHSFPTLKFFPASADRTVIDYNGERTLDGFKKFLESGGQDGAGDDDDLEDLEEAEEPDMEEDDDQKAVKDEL

Target: superoxide dismutase 1 wild type (SOD1WT), full length, in pGBKT7 (human) (UniProt P00441)
Assay: two-hybrid; SOD1WT or SOD1G93A in pGBKT7, PDI in pGADT7, yeast Y2HGold; growth on media with X-alpha-Gal without leucine, tryptophan and histidine

binding: binds
Substance: protein disulphide isomerase (PDI), full length, in pGADT7 (from UniProt P07237 1-508)
